Results as given in patent US9433577B2 (Merck Patent GmbH, priority 2009, dated 2016).

Test: general procedure: peptide synthesis; DCCI, DIPCDI or EDCI
Details: purification step

## cyclo-(Arg-Gly-Asp-DPhe-NMeVal)
Run 1
  final HPLC purity: 99.9%
Run 2
  final HPLC purity: 99.9%
Run 3
  final HPLC purity: 99%
Run 4
  final HPLC purity: 99.8%
